# Results from publication PMC4770209.
# Protein sequences, listed by entry. Tags and fused reporters are not part of them. Residues count along the entry.
# UniProt Q01167, 228-382: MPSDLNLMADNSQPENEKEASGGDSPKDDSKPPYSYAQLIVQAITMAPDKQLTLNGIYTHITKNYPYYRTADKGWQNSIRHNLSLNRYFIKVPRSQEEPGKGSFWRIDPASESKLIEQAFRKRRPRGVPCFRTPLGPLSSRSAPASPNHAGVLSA
# UniProt Q01167, 1-430, stated change not applied: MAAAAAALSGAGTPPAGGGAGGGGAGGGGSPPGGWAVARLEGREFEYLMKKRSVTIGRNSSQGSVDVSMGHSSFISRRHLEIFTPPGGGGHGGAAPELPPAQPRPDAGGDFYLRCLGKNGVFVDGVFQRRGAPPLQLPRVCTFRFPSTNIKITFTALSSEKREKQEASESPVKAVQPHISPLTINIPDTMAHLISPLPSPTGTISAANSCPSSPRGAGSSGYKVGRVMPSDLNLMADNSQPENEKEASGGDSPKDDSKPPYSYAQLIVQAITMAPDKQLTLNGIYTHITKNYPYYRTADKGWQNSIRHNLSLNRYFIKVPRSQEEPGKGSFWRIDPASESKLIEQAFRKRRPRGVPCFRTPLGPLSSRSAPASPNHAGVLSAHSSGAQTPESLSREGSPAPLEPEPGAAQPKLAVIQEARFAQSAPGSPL
# Key:
# FOXK2(228-382) = FOXK2(228-382) (UniProt Q01167); experiment: competition with a labelled probe; settings: unlabelled competitor 25-200x vs labelled WT; EMSA: 75 mM KCl, room temperature 30 min, 5% PAGE in 0.25x TBE at 4 C; recombinant protein; residues 228-382; protein details: 6xHis
# [1] = molecular target: FOXK2(1-430)-Sso7d, Sso7d mutant (UniProt Q01167); experiment: pull-down; settings: streptavidin beads; protein translated in vitro; residues 1-430; label: 5'-biotin on strand 1
# [2] = molecular target: FOXK2(1-430)-Sso7d, forkhead domain mutant (UniProt Q01167); experiment: pull-down; settings: streptavidin beads; protein translated in vitro; residues 1-430; label: 5'-biotin on strand 1
# [3] = molecular target: FOXK2(1-430)-Sso7d fusion (UniProt Q01167); experiment: pull-down; settings: streptavidin beads; protein translated in vitro; residues 1-430; label: 5'-biotin on strand 1
Sequence,binding result (FOXK2(228-382)),binding result [1],binding result [2],binding result [3]
CTAGAACATGTTAGGGTAAACAAGGAAGCCTG / CTAGCAGGCTTCCTTGTTTACCCTAACATGTT [CYP27C1mut1 (ADS3737/ADS3738)],binds more weakly,–,–,–
CTATTCCCTGGGTAAACAGCCTGAGGGGAAG (double strand) [ANKRD1 WT probe (ADS4757/ADS4758)],–,binds more weakly,binds more weakly,binds

# For some of these results: The comparison behind a weaker result is the experiment's own reference, which may not be listed here. For some of these results: For at least one entry, the source does not settle the construct or the ends of the probe. For some of these results: At least one verdict was read from the data and is not stated in words by the source.
